Data taken from PubChem BioAssay AID493014 (National Center for Advancing Translational Sciences (NCATS), 2011).
The list shows a part of the results. Further columns of the screen follow, without active or inactive calls. The list favours compounds with an active or inconclusive main result. Potencies come from curve fits of mixed quality, noted in brackets.

Assay: qHTS Assay to Find Inhibitors of Chronic Active B-Cell Receptor Signaling
Details: ABC-DLBCL IkBa-CBG/CBR reporter, luminescence ratio (green luciferase fused to IkBa over red control in TMD8 lymphoma cells), 4 h
How it was run: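 Cell line TMD8 (human ABC DLBCL), stably expressing tet-inducible CBG68-IkBa fusion and CBR; IMDM/0.5% FBS; cpd up to 46 uM; dox induction, 4 h, 37C/5% CO2; dual luminescence; green/red ratio; MG132 control.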

[1] = measured here: CBR red luminescence, cell number
[2] = measured here: IkBa-CBG green luminescence

| SMILES | AC50 [1] | AC50 [2] |
| --- | --- | --- |
| CC(C)(C)n1ncc2c(=O)n(CC(=O)N3CCCc4ccccc43)cnc21 | 35.5 µM [falling, single point] | – |
| COC(=O)c1ccc(Nc2cc(C)nc(-c3ccccc3O)n2)cc1 | 0.326 µM [falling, full curve] | – |
| CN(C)/C=C/C(=O)c1cnc(-c2ccccn2)s1 | 35.5 µM [falling, single point] | – |
| CC(=O)NC12CC3CC(C1)CC(C(=O)Nc1nc4c(C)cccc4s1)(C3)C2 | 7.08 µM [falling, full curve] | – |
| CC(C)C(=O)c1cc2c(cc1NC(=O)Nc1cccc3ccccc13)OCCO2 | 29.1 µM [falling, single point] | – |
| CCOC(=O)c1cnn(CCOC(=O)c2ccc(OC)cc2)c1NC(=O)c1ccc(OC)cc1 | 13 µM [rising, partial curve, poor fit] | – |
| O=C(CN1C(=O)CCC1=O)Nc1ccc(Br)cc1 | 8.91 µM [falling, partial curve] | – |
| C/C(CC(=O)NCc1ccc(Cl)cc1)=N\NC(=O)COc1ccc(C)cc1Br | 31.6 µM [rising, single point] | 25.1 µM [falling, single point] |
| COc1cccc(C(=O)O/N=C/c2ccc(Sc3ccc(C)cc3)nc2)c1 | 1.16 µM [rising, partial curve, poor fit] | – |
| CCC(=O)Nc1cnc(NC(=O)c2cccc(F)c2)cc1C | 23.1 µM [falling, single point] | – |
| CC(C)NC(=O)N1CCOCCOCCN(C(=O)NC(C)C)CCOCCOCC1 | 6.51 µM [falling, single point] | – |
| CCn1c(COc2ccccc2OC)nc2ccccc21 | 3.98 µM [rising, partial curve, poor fit] | – |
| Cc1cc(-c2ccccc2)nc(N/N=C/c2ccccc2)n1 | 10 µM [falling, partial curve] | – |
| N#Cc1c(-n2cccc2)cccc1-n1cccc1 | 11.2 µM [rising, partial curve] | – |
| COc1ccc(C(=O)N/N=C/c2cc(Br)ccc2O)cc1OC | 10 µM [falling, partial curve, poor fit] | – |
| CN(C)S(=O)(=O)c1cccc(NC(=O)COC(=O)c2cn(-c3ccccc3)nc2-c2ccccc2)c1 | – | 6.51 µM [rising, full curve, poor fit] |
| Clc1ccc(Cn2nnc(-c3ccc(CN4CCOCC4)cc3)n2)cc1 | 2.06 µM [rising, single point] | – |
| COc1cc([N+](=O)[O-])cc(/C=N/NC(=O)c2cncc(Br)c2)c1O | 11.2 µM [falling, partial curve, poor fit] | – |
| COc1ccc2oc(C(=O)c3ccccc3)c(NC(=O)CN3CCN(C)CC3)c2c1 | 0.126 µM [falling, full curve] | – |
| Cc1[nH]c(=O)[nH]c(=O)c1S(=O)(=O)Nc1ccc(Cl)c([N+](=O)[O-])c1 | 3.55 µM [rising, single point] | – |
| Cc1ccc(CN(C)C(=O)CN2C(=O)NC(c3ccccc3)(c3ccccc3)C2=O)c(C)c1 | 23.1 µM [falling, single point] | – |

| SMILES | AC50 [1] | AC50 [2] |
| --- | --- | --- |
| CCOc1ccc(CN(C)CC(=O)NCc2ccc(F)cc2)cc1 | 0.501 µM [falling, full curve, poor fit] | – |
| Cc1nnc2ccc(N3CCN(c4ccccn4)CC3)nn12 | 6.51 µM [rising, single point] | – |
| COc1ccc(-c2nnc(COc3ccc4ccccc4c3)o2)cc1OC | 29.1 µM [falling, single point] | – |
| O=C(CNC(=O)c1sc2ccccc2c1Cl)NCc1cccc(C(F)(F)F)c1 | 29.1 µM [rising, partial curve, poor fit] | – |
| CC1=C(C(=O)OCC(C)C)[C@]23C(=O)c4ccccc4[C@@]2(O1)OC(N)=C3C#N | 6.51 µM [rising, full curve, poor fit] | – |
| c1ccc(-c2nnc3sc(-c4cc5ccccc5o4)nn23)cc1 | 1.16 µM [rising, full curve, poor fit] | – |
| C#CCN1C(=O)S/C(=C\c2ccc(-c3ccc(C(=O)O)cc3C)o2)C1=O | 15.8 µM [falling, single point] | – |
| COC(=O)c1c(-c2ccc(S(C)(=O)=O)cc2)sc2ccc(OC)cc12 | 14.6 µM [rising, partial curve, poor fit] | – |
| CCC(C)(C)NC(=O)C(c1cccn1C)N(C(=O)Cn1nnc2ccccc21)c1ccc(NC(C)=O)cc1 (stereo not given) | 8.91 µM [rising, partial curve, poor fit] | – |
| Oc1ccc(/C=N/N=C/c2ccc(O)c(O)c2)cc1O | 15.8 µM [falling, single point] | – |
| Fc1ccc(-n2cc(-c3ccccc3)c3c(NCCc4ccccc4)ncnc32)cc1 | 10 µM [rising, partial curve] | – |
| NC(=O)Cc1nc(-c2ccc(F)cc2)cs1 | 35.5 µM [rising, single point] | – |
| COc1cccc(N2CCN(C(=O)CN(c3cc(C)cc(C)c3)S(=O)(=O)c3c(C)noc3C)CC2)c1 | 35.5 µM [falling, single point] | – |
| COc1ccc(C(=O)Nc2ccccc2C(=O)N/N=C/c2ccc(O)c(OC)c2)cc1 | 0.282 µM [falling, full curve] | – |
| CCOC(=O)c1cccc(NC(=S)N2CCN(c3ncc4c(=O)c(C(=O)O)cn(CC)c4n3)CC2)c1 | 35.5 µM [rising, single point] | – |
| O=C(Nc1ccc(NC(=O)c2ccncc2)cc1)c1ccncc1 | 3.98 µM [rising, full curve, poor fit] | – |
| CC[n+]1c(/C=C(\C)SC)sc2ccccc21 | 35.5 µM [falling, single point] | – |
| CN(C)CCn1c(=O)n(Cc2ccco2)c(=O)c2c3c(sc21)CCCCC3 | 0.708 µM [falling, full curve, poor fit] | – |
| O=C(CSc1nnc(-c2ccncc2)n1-c1ccccc1)N1CCN(c2ccc(Cl)cc2)CC1 | 0.731 µM [rising, full curve, poor fit] | – |
| COc1ccc(OC(=O)c2cccc([N+](=O)[O-])c2)c(C(=O)/C=C/c2cccs2)c1 | 18.4 µM [falling, single point] | – |
| O=C(Nc1ccncc1)c1cccs1 | 15.8 µM [falling, single point] | – |

3 entries already listed, arranged by SMILES length, ascending:

| SMILES | AC50 [1] | AC50 [2] |
| --- | --- | --- |
| CCOc1ccc(CN(C)CC(=O)NCc2ccc(F)cc2)cc1 | 0.501 µM [falling, full curve, poor fit] | – |
| O=C(CSc1nnc(-c2ccncc2)n1-c1ccccc1)N1CCN(c2ccc(Cl)cc2)CC1 | 0.731 µM [rising, full curve, poor fit] | – |
| CC1=C(C(=O)OCC(C)C)[C@]23C(=O)c4ccccc4[C@@]2(O1)OC(N)=C3C#N | 6.51 µM [rising, full curve, poor fit] | – |

Continued:

| SMILES | AC50 [1] | AC50 [2] |
| --- | --- | --- |
| C/C(CCC(C)C)=N\NC(=S)NCc1ccccc1 | – | 20 µM [falling, single point] |
| CC(=O)Nc1nc(COc2ccc3ccccc3c2)cs1 | 18.4 µM [falling, partial curve, poor fit] | – |
| NC(=S)Nc1cc(Cl)cc(Cl)c1 | 3.55 µM [rising, full curve, poor fit] | – |
| NC(=O)C1CCN(c2ncnc3c2c(-c2ccccc2)cn3-c2ccccc2)CC1 | 0.82 µM [rising, full curve, poor fit] | – |
| Cc1nc(NC(=O)C2CC2)sc1C(=O)Nc1cccc(Cl)c1 | 20 µM [falling, single point] | – |
| CN(C(=O)c1ccc2c(Cl)c3c(nc2c1)CCC3)c1ccccc1 | 20.6 µM [falling, single point] | – |
| O=C(O)c1ccc(S(=O)(=O)c2ccc3c(c2)C(=O)N(NC(=O)c2ccccc2)C3=O)cc1 | 4.47 µM [falling, partial curve] | – |
| Cc1nc2ccccc2n2c(-c3ccccc3)c3c(=O)n(C)c(=O)n(C)c3c12 | 0.164 µM [rising, full curve, poor fit] | – |
| N=C1S/C(=C\c2cn[nH]c2-c2ccc(F)cc2)C(=O)N1c1ccccc1F | 9.2 µM [falling, partial curve, poor fit] | – |
| Cc1c(C(=O)NCc2ccccn2)sc2nc(-c3ccc(F)cc3)cn12 | 4.11 µM [rising, full curve, poor fit] | – |
| O=C1CC(c2ccc(F)cc2)Sc2nc(C34CC5CC(CC(C5)C3)C4)nn21 (stereo not given) | 5.17 µM [falling, full curve, poor fit] | – |
| CC1CCCCN1C(=O)CSc1nc(N)cc(=O)[nH]1 (stereo not given) | 0.184 µM [falling, full curve, poor fit] | – |
| CC(=O)N1CCN(C(=O)/C(C#N)=C/c2ccc3c(c2)OCO3)CC1 | 7.08 µM [falling, partial curve, poor fit] | – |
| O=C(O)CCC(=O)CCC(=O)c1ccc(Cl)cc1 | 25.9 µM [falling, single point] | – |
| CCOC(=O)/C(C#N)=C/c1c(N2CCN(c3ccc(OC)cc3)CC2)nc2c(C)cccn2c1=O | 6.31 µM [falling, full curve, poor fit] | – |
| Cc1ccc(N2CC(C(=O)OCc3ccccc3)CC2=O)cc1 (stereo not given) | 2.82 µM [rising, partial curve, poor fit] | – |
| CCOc1ccc(CCNC(=O)CN(C)S(=O)(=O)c2cccc3nsnc23)cc1OCC | 1.78 µM [rising, full curve, poor fit] | – |
| Cn1c(=O)c2c(nc(SCCOc3ccc4ccc(=O)oc4c3)n2C)n(C)c1=O | 5.17 µM [falling, partial curve, poor fit] | – |
| CCc1c(C)c(C#N)c2[nH]c3ccccc3n2c1=S | 5.62 µM [falling, full curve, poor fit] | 10 µM [rising, partial curve, poor fit] |
| CCOC(=O)c1c(/C=N/Nc2ccccc2)c2sc(C)cc2n1C | 6.51 µM [rising, partial curve, poor fit] | 18.4 µM [falling, partial curve] |
